From PubChem BioAssay AID504327 (National Center for Advancing Translational Sciences (NCATS), 2011)
About 820 (0.21%) of roughly 390,000 compounds were called active. The inconclusive results got no clear call from the source; some entries with a clear call stand among them for comparison. Calls come from the whole dose curve; as a rule, active = well fitted inhibition curve with a large enough effect; inconclusive = small, poorly fitted or top-dose-only effect, or another doubt; inactive = no such curve, though single readings can be large or run the other way. Potencies of inconclusive entries are doubtful fits and often do not repeat. Non-standard residues stand in square brackets, D forms with d. Residues, ends and D or L forms follow the SMILES beside them. ξ: configuration not given here. *: point of attachment. ξF = NC(Cc1ccccc1)C(=O)O; Cbz = O=C(OCc1ccccc1)*

Amino acid sequences for entries named in this document (tags omitted).
UniProt Q92830, whole entry, looked up: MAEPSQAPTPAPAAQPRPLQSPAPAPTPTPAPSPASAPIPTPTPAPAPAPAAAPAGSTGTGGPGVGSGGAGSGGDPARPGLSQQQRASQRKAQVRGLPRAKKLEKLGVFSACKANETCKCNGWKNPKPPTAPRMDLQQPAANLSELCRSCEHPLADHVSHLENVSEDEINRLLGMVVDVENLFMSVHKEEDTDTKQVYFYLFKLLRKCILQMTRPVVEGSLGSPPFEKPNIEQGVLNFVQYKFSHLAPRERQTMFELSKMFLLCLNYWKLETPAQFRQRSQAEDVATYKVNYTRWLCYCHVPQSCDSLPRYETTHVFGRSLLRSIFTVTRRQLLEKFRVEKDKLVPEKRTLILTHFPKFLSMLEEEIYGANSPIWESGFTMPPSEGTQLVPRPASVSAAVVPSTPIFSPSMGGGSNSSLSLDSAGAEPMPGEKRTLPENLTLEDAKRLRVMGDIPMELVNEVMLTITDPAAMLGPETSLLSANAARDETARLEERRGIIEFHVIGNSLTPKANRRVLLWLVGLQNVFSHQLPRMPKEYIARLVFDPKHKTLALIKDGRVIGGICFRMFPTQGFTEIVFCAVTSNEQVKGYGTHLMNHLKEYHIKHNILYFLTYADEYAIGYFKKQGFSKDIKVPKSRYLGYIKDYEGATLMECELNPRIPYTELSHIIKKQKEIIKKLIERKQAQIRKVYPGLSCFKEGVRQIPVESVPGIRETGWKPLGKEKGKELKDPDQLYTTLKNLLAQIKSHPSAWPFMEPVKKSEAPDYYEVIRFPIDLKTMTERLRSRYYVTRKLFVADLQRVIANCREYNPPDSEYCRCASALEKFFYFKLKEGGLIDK

Molecular target: Histone acetyltransferase KAT2A (Homo sapiens) (UniProt Q92830)
Experiment: qHTS Assay for Inhibitors of GCN5L2
Conditions: GCN5L2 HAT assay, ThioGlo1 CoA-SH fluorescence; activity change, negative = inhibition: at 58.9 µM (top of the series) unless noted
Method in brief: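 Preincubate 20nM GCN5L2 with compound 15 min, RT → add 50uM ThioGlo1 + 75uM H3(1-25) + 70uM acetyl-CoA → read fluorescence 0 and 20 min. Primary qHTS; fluorescent artifacts likely.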
% is set by controls: 0 for no effect and ±100 for the full control effect; potency is the fitted concentration of half-maximal effect.

SMILES	activity change, negative = inhibition	Potency
CC(C)C(=O)N1CCN(CCN2C(=O)c3cccc4cccc(c34)C2=O)CC1	inactive: -1.68%	–
O=C(NNS(=O)(=O)c1ccc(Cl)cc1)c1sccc1-n1cccc1	–	inconclusive: 31.6 µM [inhibitor, single point]
O=C(/C=C/c1ccc(O)cc1)OC[C@H]1O[C@@H](Oc2c(-c3ccc(O)cc3)oc3cc(O)cc(O)c3c2=O)[C@H](O)[C@@H](O)[C@@H]1O	inactive: 0%	–
COc1ccc(CN(C)C2CCCCC2)c(C)c1C	inconclusive: -45.7% [inhibitor] [at 0.501 µM]	–
CCN(C(=O)CSc1nc2ccccc2n1Cc1ccc(F)cc1Cl)c1ccccc1	inactive: 21.5%	–
CCOc1cc(/C=N/NC(=O)c2ccccn2)ccc1OC(=O)c1cccs1	–	inconclusive: 50.1 µM [inhibitor, partial curve, poor fit]
CC(C)(C)NNC(=S)Nc1cccc(F)c1	inactive: 2.41%	–
CN(C)c1ccc(Nc2ncnc3sc4c(c23)CCCC4)cc1	inactive: -12%	–
CCOC(=O)C(Cc1c[nH]c2ccccc12)NC(=O)COc1ccc(CC)cc1 (centres undefined)	inactive: 1.7%	–
CCc1ccccc1N1CSC2=C(C#N)C(c3cc(OC)c(OC)cc3OC)CC(=O)N2C1 (centres undefined)	–	inconclusive: 31.6 µM [inhibitor, single point]
CC(C)(C)c1ccc(N/N=C(\C#N)S(=O)(=O)C(C)(C)C)cc1	–	inconclusive: 0.562 µM [inhibitor, single point]
COc1cc2c(cc1OC)CN(CC(=O)Nc1ccc3c(c1)OCO3)CC2	inactive: -0.838%	–
O=C(NCc1cccnc1)c1ccc(Cl)c(S(=O)(=O)N2CCOCC2)c1	inactive: -15.1%	–
CN1C(=O)c2ccc(NC(=O)c3cccc(N4C(=O)CCC4=O)c3)cc2C1=O	–	inconclusive: 39.8 µM [inhibitor, single point]
COc1ccc(F)cc1S(=O)(=O)Nc1cccc(-c2ccc(N3CCC(C)CC3)nn2)c1	–	inconclusive: 39.8 µM [inhibitor, single point]
O=C(Nc1nnc(S(=O)(=O)N2CCCCC2)s1)c1ccccc1Br	–	inconclusive: 8.91 µM [inhibitor, full curve, poor fit]
COC(=O)CSc1nnc(NC(=O)C2CC(=O)N(c3ccc(F)cc3)C2)s1 (centres undefined)	–	inconclusive: 39.8 µM [inhibitor, single point]
Cc1ccccc1/C=N\NC(=O)c1csnn1	–	inconclusive: 6.31 µM [inhibitor, single point]
O=C(NCCCN1CCCCCC1)c1ccc2c(c1)NC(=O)C(N1CCOCC1)S2 (centres undefined)	–	inconclusive: 39.8 µM [inhibitor, single point]
COc1nnc(-c2ccc(C(=O)N3C[C@@H]4C[C@H](C3)c3cccc(=O)n3C4)cc2)c2ccccc12	inactive: -0.578%	–
O=c1nc2c(O)cccn2c2c1c(=O)[nH]c1ccccc12	–	inconclusive: 22.4 µM [inhibitor, single point]
CSc1cccc(NC(=O)c2cnn3ccccc23)c1	–	inconclusive: 39.8 µM [inhibitor, single point]
Cc1ccc(C(=O)N/C(=C/c2ccco2)C(=O)Nc2cccc(C(=O)O)c2)cc1	inactive: -10.3%	–

SMILES	activity change, negative = inhibition	Potency
CCCCn1c(N)c(N(CCOC)C(=O)CSc2nnc(-c3ccc(F)cc3)n2N)c(=O)[nH]c1=O	–	inconclusive: 25.1 µM [inhibitor, single point]
CC(C)[C@H](NC(=O)OCc1ccccc1)C(=O)NC(C=O)Cc1ccccc1 (stereo partly drawn) (Cbz-Val-[ξF]-aldehyde)	inactive: 0.0471%	–
O=C(O)c1ccc(-c2nc(-c3ccccc3)c(-c3ccccc3)[nH]2)cc1	–	inconclusive: 28.2 µM [inhibitor, single point]
Cc1ccccc1Nc1nnc(C)c(=O)n1N	–	inconclusive: 0.562 µM [inhibitor, single point]
CCOC(=O)c1cc(C(=O)Nc2ccccc2F)nn1C	inconclusive: -35.1% [inhibitor] [at 0.501 µM]	–
Cc1ccccc1OCC(=O)NCC(c1ccc(Cl)cc1)N1CCCCC1 (centres undefined)	inactive: -6.97%	–
Cn1ccsc1=NC(=O)c1ccc(S(C)(=O)=O)c([N+](=O)[O-])c1	–	inconclusive: 3.16 µM [inhibitor, full curve]
Nc1c(N2CCOCC2)cc(Cl)c2nonc12	inactive: -4.35%	–
O=C(NC1CCCCC1)C(c1ccccc1)N(Cc1ccco1)C(=O)Cn1cnc2ccccc21 (centres undefined)	inactive: -3.62%	–
COc1ccc(NC(=O)C2=CC(c3ccc(C)cc3)=NS(=O)(=O)N2C)cc1	–	inconclusive: 7.08 µM [inhibitor, single point]
CCCS(=O)(=O)Nc1cccc(-c2cn3ccc(C)cc3n2)c1	inactive: -2.14%	–
CCOC(=O)c1cnn(-c2ccc(C(=O)Nc3ccc(C(C)=O)cc3)cc2)c1N	inactive: 2.05%	–
N#Cc1c(-c2ccncc2)c2c([nH]c1=S)CCCC2	–	inconclusive: 5.62 µM [inhibitor, full curve, poor fit]
O=C(CSc1ccc(-c2cccnc2)nn1)Nc1ccccc1C(F)(F)F	–	inconclusive: 0.891 µM [inhibitor, full curve, poor fit]
O=S(=O)(c1cccs1)N1CCN(Cc2cccc(F)c2)CC1	–	inconclusive: 3.55 µM [inhibitor, full curve, poor fit]
O=C(c1cc(-c2cccc(Br)c2)nc2ccccc12)N1CCCC1	–	inconclusive: 7.08 µM [inhibitor, single point]
CSc1nc2ccccc2cc1/C=C(\C#N)c1ccc(Cl)cc1Cl	–	inconclusive: 7.94 µM [inhibitor, single point]
COc1cc2oc(=O)cc(-c3ccc(-c4ccc(OC(F)(F)F)cc4)cc3)c2c(OC)c1OC	–	inconclusive: 20 µM [inhibitor, partial curve]
COc1cc(C(c2c(C)[nH][nH]c2=O)c2c(C)[nH][nH]c2=O)ccc1OC(=O)c1cccc([N+](=O)[O-])c1	inactive: -2.51%	–
CSc1ccc(NC(=O)CSc2nc3[nH]c(=O)cc(O)c3s2)cc1	–	inconclusive: 17.8 µM [inhibitor, partial curve]
COC(=O)Cn1c(=NC(=O)c2cc(OC)cc(OC)c2)sc2cc(OC)ccc21	–	inconclusive: 35.5 µM [inhibitor, single point]
COc1ccc(CCNc2c([N+](=O)[O-])c(=O)oc3ccccc23)cc1OC	–	inconclusive: 6.31 µM [inhibitor, partial curve, poor fit]
COc1ccc(CN(C)C(=O)c2cc(S(=O)(=O)N3CCCCCC3)ccc2OC)cc1OC	–	inconclusive: 12.6 µM [inhibitor, partial curve, poor fit]

SMILES	activity change, negative = inhibition	Potency
COc1cc(C(=O)Nc2ccc3nc(N4CCN(C)CC4)cc(C)c3c2)cc(OC)c1OC	–	inconclusive: 39.8 µM [inhibitor, single point]
COc1ccc(NC(=O)CSc2nc3ccccc3nc2N2CCCC2)cc1Cl	–	inconclusive: 35.5 µM [inhibitor, single point]
Cc1ccc(-c2ccccc2NC(=O)CS(=O)CC(=O)Nc2ccc(C)c(Cl)c2)o1 (centres undefined)	inactive: -4.08%	–
Cc1cc(NCCOCCO)n2c(nc3ccccc32)c1C#N	–	inconclusive: 35.5 µM [inhibitor, single point]
Cc1ccc(NC(=S)/C(=C(\[O-])c2ccc(C)c([N+](=O)[O-])c2)[n+]2ccccc2)cc1C	–	inconclusive: 28.2 µM [inhibitor, partial curve]
C=C(C)C1Cc2c(C)nn(-c3cccc4ccccc34)c2C1 (centres undefined)	inactive: -5.06%	–
CC(=O)c1ccc(NC(=O)CSc2nccn2C)cc1	–	inconclusive: 5.62 µM [inhibitor, full curve, poor fit]
NC(=O)N/N=C/c1c(O)ccc2oc3c(c12)CCCC3	inactive: 0%	–
O=C(OCc1ccccc1)/C(=C/c1cccc(Br)c1)NC(=O)c1ccco1	–	inconclusive: 0.447 µM [inhibitor, full curve, poor fit]
CC(=O)c1ccc(NC(=O)c2cc(=O)[nH]c3ccccc23)cc1	–	inconclusive: 10 µM [inhibitor, partial curve, poor fit]
COC(=O)c1sccc1NC(=O)CC1C(=O)NCCN1C(=O)c1c(F)cccc1Cl (centres undefined)	–	inconclusive: 14.1 µM [inhibitor, partial curve]
CC(C)C[C@H]1CN=C(N(C)C)N1CC1CCCC1	inactive: -3.35%	–
COc1ccccc1-c1coc2c(CN(C)C)c(O)ccc2c1=O	–	inconclusive: 39.8 µM [inhibitor, single point]
Cc1sc2ncnc(N3CCC(C(=O)NNC(=O)COc4ccc(Br)cc4)CC3)c2c1C	inactive: -6.49%	–
COc1ccc(NC(=S)N2CCN(Cc3ccco3)CC2)c(OC)c1	–	inconclusive: 3.98 µM [inhibitor, single point]
COc1cc(OC)cc(-c2c(-c3cccs3)c3cc(-c4ccc5c(c4)OCO5)ccc3n2C)c1	inactive: -9.98%	–
CNC(=O)c1cc(NC(=O)CCn2nc(-c3ccc(C)cc3)c3ccccc3c2=O)ccc1OC	inactive: 0.438%	–
O=c1cc(O)c2c(=O)n(Cc3ccccc3)c3ccccc3c2o1	–	inconclusive: 39.8 µM [inhibitor, single point]
Cc1nc2cnc(N(C)C)nc2n(C)c1=O	–	inconclusive: 25.1 µM [inhibitor, partial curve]
O=C(COC(=O)c1cc2c(s1)CCC2)Nc1ccc(F)cc1	–	inconclusive: 35.5 µM [inhibitor, single point]
CC(C)(C)C(=O)Nc1ccc(-c2nnc3n2CCCCC3)cc1	–	inconclusive: 0.794 µM [inhibitor, single point]
Cc1ccc(-c2cccc(NC(=O)C3C4C=CC(C4)C3C(=O)O)c2)o1 (centres undefined)	inactive: -2.83%	–
C=CCOc1cccc(CNn2cn[nH]c2=S)c1	–	inconclusive: 8.91 µM [inhibitor, single point]

Pulled one by one from the entries so far, 4 records:
SMILES	activity change, negative = inhibition	Potency
COc1ccc(NC(=S)N2CCN(Cc3ccco3)CC2)c(OC)c1	–	inconclusive: 3.98 µM [inhibitor, single point]
O=C(OCc1ccccc1)/C(=C/c1cccc(Br)c1)NC(=O)c1ccco1	–	inconclusive: 0.447 µM [inhibitor, full curve, poor fit]
N#Cc1c(-c2ccncc2)c2c([nH]c1=S)CCCC2	–	inconclusive: 5.62 µM [inhibitor, full curve, poor fit]
O=C(/C=C/c1ccc(O)cc1)OC[C@H]1O[C@@H](Oc2c(-c3ccc(O)cc3)oc3cc(O)cc(O)c3c2=O)[C@H](O)[C@@H](O)[C@@H]1O	inactive: 0%	–
